No constants are given. Whether binding was seen depends on the method and setting. Binding seen in cells or lysates may run through a third protein. Some results given as binding are weak or reduced against the parent protein; the word gives no strength.
Target: T1, cellular RARα (NIH3T3) (mouse (endogenous in NIH3T3)) (UniProt P11416)
T1 sequence: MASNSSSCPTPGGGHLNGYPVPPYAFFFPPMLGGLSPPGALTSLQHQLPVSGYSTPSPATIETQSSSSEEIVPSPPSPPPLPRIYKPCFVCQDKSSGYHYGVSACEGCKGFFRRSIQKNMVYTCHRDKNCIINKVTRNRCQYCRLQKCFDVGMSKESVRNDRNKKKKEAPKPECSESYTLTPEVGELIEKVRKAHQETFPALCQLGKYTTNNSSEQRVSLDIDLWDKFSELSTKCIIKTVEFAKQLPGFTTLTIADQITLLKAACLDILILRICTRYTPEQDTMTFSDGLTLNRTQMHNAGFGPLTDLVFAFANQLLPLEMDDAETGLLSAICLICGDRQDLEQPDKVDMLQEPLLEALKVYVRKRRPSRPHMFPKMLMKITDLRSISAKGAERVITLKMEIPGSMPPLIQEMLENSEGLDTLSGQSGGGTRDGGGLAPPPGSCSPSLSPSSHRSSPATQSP
Assay: pull-down; streptavidin pulldown from NIH3T3 cells incubated with biotin-CA (10 uM) for 24 h (controls: no addition, CA39 10 uM); immunoblot for N-CoR1 and RARα

Chains of the proteins cited; added tags and fusions are not shown.
UniProt Q60974: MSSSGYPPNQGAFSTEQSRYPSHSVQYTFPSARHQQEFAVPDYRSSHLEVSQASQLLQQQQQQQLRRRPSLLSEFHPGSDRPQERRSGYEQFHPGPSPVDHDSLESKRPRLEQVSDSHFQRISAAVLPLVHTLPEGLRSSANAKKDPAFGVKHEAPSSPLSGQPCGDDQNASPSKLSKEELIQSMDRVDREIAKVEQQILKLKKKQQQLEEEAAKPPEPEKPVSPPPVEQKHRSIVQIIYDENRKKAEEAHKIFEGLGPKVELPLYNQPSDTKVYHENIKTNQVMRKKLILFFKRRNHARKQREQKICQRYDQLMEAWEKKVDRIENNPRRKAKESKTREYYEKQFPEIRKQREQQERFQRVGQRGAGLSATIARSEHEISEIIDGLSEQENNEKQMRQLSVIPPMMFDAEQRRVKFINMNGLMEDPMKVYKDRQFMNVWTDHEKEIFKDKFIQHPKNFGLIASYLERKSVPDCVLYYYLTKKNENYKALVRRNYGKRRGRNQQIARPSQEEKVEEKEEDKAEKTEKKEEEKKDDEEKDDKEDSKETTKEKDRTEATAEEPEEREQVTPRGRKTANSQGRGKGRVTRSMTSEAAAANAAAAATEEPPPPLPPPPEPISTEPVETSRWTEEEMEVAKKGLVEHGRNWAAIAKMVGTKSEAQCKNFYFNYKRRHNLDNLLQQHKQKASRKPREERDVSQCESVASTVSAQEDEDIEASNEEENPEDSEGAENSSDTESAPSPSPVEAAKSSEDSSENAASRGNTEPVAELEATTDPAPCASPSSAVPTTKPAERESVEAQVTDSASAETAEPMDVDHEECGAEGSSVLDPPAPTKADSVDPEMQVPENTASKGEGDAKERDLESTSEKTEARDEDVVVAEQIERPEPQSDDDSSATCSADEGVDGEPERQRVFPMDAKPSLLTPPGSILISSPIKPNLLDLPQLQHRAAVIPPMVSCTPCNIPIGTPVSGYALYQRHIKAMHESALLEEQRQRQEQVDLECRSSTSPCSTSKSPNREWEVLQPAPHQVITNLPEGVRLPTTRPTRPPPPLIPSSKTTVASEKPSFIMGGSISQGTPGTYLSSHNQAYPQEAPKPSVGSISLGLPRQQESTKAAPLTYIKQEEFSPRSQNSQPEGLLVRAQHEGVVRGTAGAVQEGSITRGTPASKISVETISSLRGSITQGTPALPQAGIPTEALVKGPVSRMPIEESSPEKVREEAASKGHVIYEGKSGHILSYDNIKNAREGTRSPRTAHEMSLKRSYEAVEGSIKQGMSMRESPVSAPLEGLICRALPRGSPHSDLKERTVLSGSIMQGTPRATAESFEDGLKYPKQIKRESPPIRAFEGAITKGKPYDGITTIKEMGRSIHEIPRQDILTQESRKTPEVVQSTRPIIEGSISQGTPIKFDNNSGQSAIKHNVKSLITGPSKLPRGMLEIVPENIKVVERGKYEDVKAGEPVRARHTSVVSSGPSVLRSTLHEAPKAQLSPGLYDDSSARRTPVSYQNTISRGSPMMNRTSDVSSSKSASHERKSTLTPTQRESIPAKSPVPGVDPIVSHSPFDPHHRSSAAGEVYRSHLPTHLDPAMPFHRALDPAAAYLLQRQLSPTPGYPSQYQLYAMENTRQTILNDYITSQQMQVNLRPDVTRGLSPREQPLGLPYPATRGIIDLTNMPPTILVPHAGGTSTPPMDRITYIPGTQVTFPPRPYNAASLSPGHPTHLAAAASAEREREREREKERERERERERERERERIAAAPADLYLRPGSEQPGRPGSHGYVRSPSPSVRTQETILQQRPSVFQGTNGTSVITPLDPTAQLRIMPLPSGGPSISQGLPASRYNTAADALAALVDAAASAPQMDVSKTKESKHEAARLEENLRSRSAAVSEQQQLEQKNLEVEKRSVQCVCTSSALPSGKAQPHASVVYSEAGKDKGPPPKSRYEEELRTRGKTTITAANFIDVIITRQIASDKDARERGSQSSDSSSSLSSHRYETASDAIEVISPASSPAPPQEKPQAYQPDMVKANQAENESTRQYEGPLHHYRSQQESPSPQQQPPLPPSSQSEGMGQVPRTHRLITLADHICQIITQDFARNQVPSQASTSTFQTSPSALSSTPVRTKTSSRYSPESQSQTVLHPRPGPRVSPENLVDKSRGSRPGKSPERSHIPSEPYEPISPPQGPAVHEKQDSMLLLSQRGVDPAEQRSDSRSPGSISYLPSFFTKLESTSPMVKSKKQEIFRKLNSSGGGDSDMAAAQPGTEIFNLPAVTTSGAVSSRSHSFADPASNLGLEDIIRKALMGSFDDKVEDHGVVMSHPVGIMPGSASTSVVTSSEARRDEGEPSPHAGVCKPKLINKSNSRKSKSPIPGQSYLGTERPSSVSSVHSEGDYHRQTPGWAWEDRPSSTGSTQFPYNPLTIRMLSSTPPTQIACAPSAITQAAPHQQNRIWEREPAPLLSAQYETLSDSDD

Substance: cellular N-CoR1 (NIH3T3) (from UniProt Q60974 1-2453)
- binding: binds

Reference: PMC9304322, “Targeting retinoic acid receptor alpha-corepressor interaction activates chaperone-mediated autophagy and protects against retinal degeneration” (Nature Communications, 2022)
